PubChem BioAssay AID1224830 | NIAID – 2016
The deposit covers about 18,000 reagents; below is a random part of them. Over the whole deposit, about 2,900 (16%) are marked active. 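Calls are made per well; low scores hint the gene aids the LPS response, high scores that it dampens it.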 Repeated entries: four replicate wells of each siRNA pool.

Aim: 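Genes whose knock-down alters the TNF-alpha reporter response to LPS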 (primary screen)
Cells: human THP-1 monocytic leukaemia cells, TNF dual-luciferase reporter clone, PMA-differentiated to macrophage-like cells
Reagent: siRNA pool against human genes, 50 nM
Time to read-out: LPS for 4 h, given about 3 days after siRNA transfection
Treatment: bacterial LPS (TLR4 ligand), 10 ng/ml
Measured: 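TNF firefly reporter luminescence divided by renilla, normalised to the plate median, then turned into a robust z-score for each replicate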
Reading the numbers: TNF reporter robust z-score: higher = stronger TNF reporter response to LPS
Hit rule: 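a well is active when its z-score exceeds 2.8 or falls below -1.5; control wells carry no call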

| target gene | TNF reporter robust z-score | activity call |
| --- | --- | --- |
| PITPNC1 (phosphatidylinositol transfer protein cytoplasmic 1) | 1.24 | inactive |
| PITPNC1 (phosphatidylinositol transfer protein cytoplasmic 1) | 1.4 | inactive |
| PITPNC1 (phosphatidylinositol transfer protein cytoplasmic 1) | 1.16 | inactive |
| PITPNC1 (phosphatidylinositol transfer protein cytoplasmic 1) | 1.59 | inactive |
| SETD3 | 0.32 | inactive |
| SETD3 | 0.5 | inactive |
| SETD3 | -0.65 | inactive |
| SETD3 | -0.8 | inactive |
| SKIC2 (SKI2 subunit of superkiller complex) | -0.7 | inactive |
| SKIC2 (SKI2 subunit of superkiller complex) | -0.05 | inactive |
| SKIC2 (SKI2 subunit of superkiller complex) | -1.04 | inactive |
| SKIC2 (SKI2 subunit of superkiller complex) | -0.43 | inactive |
| IGFBP3 (insulin like growth factor binding protein 3) | -1.53 | active |
| IGFBP3 (insulin like growth factor binding protein 3) | -1.02 | inactive |
| IGFBP3 (insulin like growth factor binding protein 3) | -0.69 | inactive |
| IGFBP3 (insulin like growth factor binding protein 3) | -1.7 | active |
| GLYATL2 (glycine-N-acyltransferase like 2) | -0.09 | inactive |
| GLYATL2 (glycine-N-acyltransferase like 2) | 0.27 | inactive |
| GLYATL2 (glycine-N-acyltransferase like 2) | 0.8 | inactive |
| GLYATL2 (glycine-N-acyltransferase like 2) | 0.1 | inactive |
| SMU1 (SMU1 DNA replication regulator and spliceosomal factor) | -0.38 | inactive |
| SMU1 (SMU1 DNA replication regulator and spliceosomal factor) | -1.09 | inactive |
| SMU1 (SMU1 DNA replication regulator and spliceosomal factor) | -0.69 | inactive |
| SMU1 (SMU1 DNA replication regulator and spliceosomal factor) | -0.83 | inactive |
| AGAP7P | 0.7 | inactive |
| AGAP7P | 2.04 | inactive |
| AGAP7P | 1.68 | inactive |
| AGAP7P | 2.66 | inactive |
| GRM8 (glutamate metabotropic receptor 8) | -0.94 | inactive |
| GRM8 (glutamate metabotropic receptor 8) | -0.13 | inactive |
| GRM8 (glutamate metabotropic receptor 8) | 0.66 | inactive |
| GRM8 (glutamate metabotropic receptor 8) | -0.21 | inactive |
| PEX13 (peroxisomal biogenesis factor 13) | -1.44 | inactive |
| PEX13 (peroxisomal biogenesis factor 13) | -1.19 | inactive |
| PEX13 (peroxisomal biogenesis factor 13) | -0.87 | inactive |
| PEX13 (peroxisomal biogenesis factor 13) | -0.91 | inactive |
| ZNF581 (zinc finger protein 581) | -0.19 | inactive |
| ZNF581 (zinc finger protein 581) | -1.14 | inactive |
| ZNF581 (zinc finger protein 581) | -0.76 | inactive |
| ZNF581 (zinc finger protein 581) | 0.72 | inactive |
| CALHM1 (calcium homeostasis modulator 1) | 0.18 | inactive |
| CALHM1 (calcium homeostasis modulator 1) | 1.49 | inactive |
| CALHM1 (calcium homeostasis modulator 1) | 0.23 | inactive |
| CALHM1 (calcium homeostasis modulator 1) | 0.84 | inactive |
| ZC3H12A (zinc finger CCCH-type containing 12A) | -0.99 | inactive |
| ZC3H12A (zinc finger CCCH-type containing 12A) | -0.85 | inactive |
| ZC3H12A (zinc finger CCCH-type containing 12A) | -1.11 | inactive |
| ZC3H12A (zinc finger CCCH-type containing 12A) | 0 | inactive |
| OPRPN (opiorphin prepropeptide) | 2.44 | inactive |
| OPRPN (opiorphin prepropeptide) | 1.81 | inactive |
| OPRPN (opiorphin prepropeptide) | 1.93 | inactive |
| OPRPN (opiorphin prepropeptide) | 2.3 | inactive |
| CLCA3P (chloride channel accessory 3, pseudogene) | -0.55 | inactive |
| CLCA3P (chloride channel accessory 3, pseudogene) | 1.13 | inactive |
| CLCA3P (chloride channel accessory 3, pseudogene) | 0.66 | inactive |
| CLCA3P (chloride channel accessory 3, pseudogene) | 1.25 | inactive |
| GHITM (growth hormone inducible transmembrane protein) | -0.46 | inactive |
| GHITM (growth hormone inducible transmembrane protein) | -0.16 | inactive |
| GHITM (growth hormone inducible transmembrane protein) | -0.41 | inactive |
| GHITM (growth hormone inducible transmembrane protein) | 0.94 | inactive |
| BCLAF1 (BCL2 associated transcription factor 1) | 0.31 | inactive |
| BCLAF1 (BCL2 associated transcription factor 1) | 1.04 | inactive |
| BCLAF1 (BCL2 associated transcription factor 1) | 0.25 | inactive |
| BCLAF1 (BCL2 associated transcription factor 1) | 1.18 | inactive |
| HLA-F (major histocompatibility complex, class I, F) | -0.2 | inactive |
| HLA-F (major histocompatibility complex, class I, F) | -0.45 | inactive |
| HLA-F (major histocompatibility complex, class I, F) | -0.26 | inactive |
| HLA-F (major histocompatibility complex, class I, F) | 0.3 | inactive |
| PDXK (pyridoxal kinase) | -0.77 | inactive |
| PDXK (pyridoxal kinase) | -0.05 | inactive |
| PDXK (pyridoxal kinase) | 0.49 | inactive |
| PDXK (pyridoxal kinase) | -0.16 | inactive |
| HOXB3 (homeobox B3) | 3.48 | active |
| HOXB3 (homeobox B3) | 0.87 | inactive |
| HOXB3 (homeobox B3) | 1.96 | inactive |
| HOXB3 (homeobox B3) | 1.89 | inactive |
| CT47A7 (cancer/testis antigen family 47 member A7) | 0.64 | inactive |
| CT47A7 (cancer/testis antigen family 47 member A7) | 1.01 | inactive |
| CT47A7 (cancer/testis antigen family 47 member A7) | 2.08 | inactive |
| CT47A7 (cancer/testis antigen family 47 member A7) | 0.99 | inactive |
| AAMP (angio associated migratory cell protein) | 0.72 | inactive |
| AAMP (angio associated migratory cell protein) | 1.44 | inactive |
| AAMP (angio associated migratory cell protein) | 1.15 | inactive |
| AAMP (angio associated migratory cell protein) | 1 | inactive |
| NSMCE3 (NSE3 component of SMC5/6 complex) | -0.34 | inactive |
| NSMCE3 (NSE3 component of SMC5/6 complex) | 0.62 | inactive |
| NSMCE3 (NSE3 component of SMC5/6 complex) | 1.31 | inactive |
| NSMCE3 (NSE3 component of SMC5/6 complex) | 1.68 | inactive |
| KCNK15 (potassium two pore domain channel subfamily K member 15) | -1.11 | inactive |
| KCNK15 (potassium two pore domain channel subfamily K member 15) | 0.04 | inactive |
| KCNK15 (potassium two pore domain channel subfamily K member 15) | 0.03 | inactive |
| KCNK15 (potassium two pore domain channel subfamily K member 15) | -0.35 | inactive |
| AP5S1 (adaptor related protein complex 5 subunit sigma 1) | -1 | inactive |
| AP5S1 (adaptor related protein complex 5 subunit sigma 1) | -0.66 | inactive |
| AP5S1 (adaptor related protein complex 5 subunit sigma 1) | -0.35 | inactive |
| AP5S1 (adaptor related protein complex 5 subunit sigma 1) | -0.24 | inactive |
| CFHR1 (complement factor H related 1) | 0.6 | inactive |
| CFHR1 (complement factor H related 1) | 0.77 | inactive |
| CFHR1 (complement factor H related 1) | 0.64 | inactive |
| CFHR1 (complement factor H related 1) | 1.21 | inactive |
| PRR35 (proline rich 35) | -1.05 | inactive |
| PRR35 (proline rich 35) | -0.72 | inactive |
| PRR35 (proline rich 35) | -1.08 | inactive |
| PRR35 (proline rich 35) | -0.98 | inactive |
| OR5K3 (olfactory receptor family 5 subfamily K member 3) | -0.8 | inactive |
| OR5K3 (olfactory receptor family 5 subfamily K member 3) | 0.05 | inactive |
| OR5K3 (olfactory receptor family 5 subfamily K member 3) | -1.12 | inactive |
| OR5K3 (olfactory receptor family 5 subfamily K member 3) | -1.11 | inactive |
| CDH6 (cadherin 6) | -0.19 | inactive |
| CDH6 (cadherin 6) | -0.38 | inactive |
| CDH6 (cadherin 6) | -0.84 | inactive |
| CDH6 (cadherin 6) | -0.45 | inactive |

14 neighbouring reagents from above, for reference:
| target gene | TNF reporter robust z-score | activity call |
| --- | --- | --- |
| KCNK15 (potassium two pore domain channel subfamily K member 15) | 0.03 | inactive |
| KCNK15 (potassium two pore domain channel subfamily K member 15) | -0.35 | inactive |
| AP5S1 (adaptor related protein complex 5 subunit sigma 1) | -1 | inactive |
| AP5S1 (adaptor related protein complex 5 subunit sigma 1) | -0.66 | inactive |
| AP5S1 (adaptor related protein complex 5 subunit sigma 1) | -0.35 | inactive |
| AP5S1 (adaptor related protein complex 5 subunit sigma 1) | -0.24 | inactive |
| CFHR1 (complement factor H related 1) | 0.6 | inactive |
| CFHR1 (complement factor H related 1) | 0.77 | inactive |
| CFHR1 (complement factor H related 1) | 0.64 | inactive |
| CFHR1 (complement factor H related 1) | 1.21 | inactive |
| PRR35 (proline rich 35) | -1.05 | inactive |
| PRR35 (proline rich 35) | -0.72 | inactive |
| PRR35 (proline rich 35) | -1.08 | inactive |
| PRR35 (proline rich 35) | -0.98 | inactive |
